This series is described as follows: general procedure: Fmoc solid-phase peptide synthesis; SPPS resin substituted with Fmoc-Ala at 0.33 milliequivalents per gram (0.43 meq/g in one example); PyBOP, HOBT. As to conditions: conjugation step, TFA salt (peptide).

Turning to “Octatetracontakis-{N-methoxyacetyl-3-methylamino-5-(2-sodium sulfonatoethylcarbamoyl)-2,4,6-triiodobenzoyl} derivative of the lysine-alanine copolymer (K5)8 K4 K2 K-A--OH”, the conjugation yield is listed as 59.8% of theory. The same measure, in the same setting: as for “dotriacontakis-{3-(3-sodium carboxylatopropionylamino)-5-(2,3-dihydroxypropylcarbamoyl)-2,4,6-triiodobenzoyl} derivative of the lysine-proline-cysteine-alanine copolymer (K3)8 K4 K2 K-P10 -C-A”, the figure is 83.6% of theory; as for “Dotriacontakis-{3,5-bis-(disodium phosphonatomethylcarba-moyl)-2,4,6-triiodaryl-carbamoyl} derivative of the lysine-alanine copolymer (K3)8 K4 K2 K-A--OH”, 75.9% of theory. Still for that read-out and setting: the result for “Octatriacontakis-{3-(4-sodium carboxylato-3-oxabutyryl-amino)-5-(2,3-dihydroxy-propylcarbamoyl)-2,4,6-triiodobenzoyl}-tetrakis-(4-sodium carboxylato-3-oxabutyryl) derivative of the lysine-alanine copolymer (K20)2 K-A--OH” reads 89.1% of theory. With “Dotriacontakis-{3-(3-sodium carboxylatopropionylamino)-5-(2,3-dihydroxypropylcarbamoyl)-2,4,6-triiodobenzoyl} derivative of the lysine-alanine copolymer (K3)8 K4 K2 K-A--OH”, under “of theory”, the conjugation yield was 88.1% of theory. Same read-out and setting: the result for “Octatetracontakis-{3-(4-sodium carboxylato-3-oxabutyrylamino)-5-(2,3-dihydroxy-propylcarbamoyl)-2,4,6-triiodobenzoyl} derivative of the lysine-alanine copolymer (K5)8 K4 K2 K-A--OH” reads 82.6% of theory; that for “Dotriacontakis-{3,5-di-(sodium carboxylatomethylcarbamoyl)-2,4,6-triiodophenyl-carbamoyl} derivative of the lysine-alanine copolymer (K3)8 K4 K2 K-A--OH”, 81.6% of theory. “Octatetracontakis-{3-sodium carboxylatoformylamino-5-(2,3-dihydroxypropylcarbamoyl)-2,4,6-triiodobenzoyl} derivative of the lysine-alanine copolymer (K5)8 K4 K2 K-A--OH”: the conjugation yield (of theory) was 91.4% of theory.

Source of the values: patent US5756066A (Schering Aktiengesellschaft, priority 1995, dated 1998).
